Measured values from PubChem BioAssay AID1347422 (Sanford-Burnham Center for Chemical Genomics, 2020).
In all, about 1,000 compounds were measured (“thermal shift dTm”: median about 0.19, highest 2% from about 1.7 on). Some of the results follow. The source made the active and inactive calls.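 How the source made its calls: active means mean rise in melting temperature of at least 1 degC over same-plate control wells; inactive means below that, where a call was filed.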

Chains of the proteins cited; added tags and fusions are not shown. Lines headed by an entry give the natural chain unless they say otherwise; changes in a name come on top.
UniProt O00391: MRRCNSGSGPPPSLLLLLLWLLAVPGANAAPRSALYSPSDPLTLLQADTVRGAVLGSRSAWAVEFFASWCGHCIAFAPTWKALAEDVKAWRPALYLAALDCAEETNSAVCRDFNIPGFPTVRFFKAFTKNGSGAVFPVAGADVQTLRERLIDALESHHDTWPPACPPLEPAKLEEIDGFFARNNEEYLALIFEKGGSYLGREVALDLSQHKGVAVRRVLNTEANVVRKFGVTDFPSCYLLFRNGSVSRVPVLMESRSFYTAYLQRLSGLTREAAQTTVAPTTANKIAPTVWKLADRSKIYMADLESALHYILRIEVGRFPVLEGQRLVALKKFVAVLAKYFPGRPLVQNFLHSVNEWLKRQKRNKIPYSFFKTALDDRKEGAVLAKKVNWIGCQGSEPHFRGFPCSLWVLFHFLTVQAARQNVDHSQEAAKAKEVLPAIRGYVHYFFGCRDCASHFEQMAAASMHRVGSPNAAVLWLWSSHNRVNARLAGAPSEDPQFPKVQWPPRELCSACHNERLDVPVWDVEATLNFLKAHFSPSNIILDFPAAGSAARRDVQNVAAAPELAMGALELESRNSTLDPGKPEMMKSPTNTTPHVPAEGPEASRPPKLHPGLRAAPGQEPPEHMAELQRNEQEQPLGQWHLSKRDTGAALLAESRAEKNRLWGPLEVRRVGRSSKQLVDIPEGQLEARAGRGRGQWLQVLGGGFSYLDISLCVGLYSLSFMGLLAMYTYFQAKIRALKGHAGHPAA

These compounds were tested against Sulfhydryl oxidase 1 (Homo sapiens) (UniProt O00391) (assay: ligand-induced melting shift of human QSOX1 – biophysical, protein thermal shift, single concentration, QSOX1 inhibitor project, confirmation (AID 1347422;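 further: dTm is compound Tm minus mean Tm of DMSO-only wells on that plate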)). Conditions: recombinant hQSOX1 thermal shift, Sypro Orange, at 25 µM, stronger effect = higher value.

Structure (SMILES) | thermal shift dTm
Cc1ccc(-c2nnc(-c3ccc(N)cc3)o2)cc1 | 0.25 °C
Nc1cc(C(O)c2ccccc2)ccc1N1CCCCC1 (configuration not stated) | 0.13 °C
COc1ccc(NC(=S)Nc2ccc3nccnc3c2)cc1 | active: 1.58 °C
COc1ccc(Nc2nnc(-c3ccccc3)c3ccccc23)cc1 | 0.01 °C
O=C(Nc1cccc(Cl)c1)N1CCN(c2ccccc2F)CC1 | 0.98 °C
CC(C)N(Cc1nc(-c2ccccc2)no1)S(=O)(=O)c1ccc(Br)cc1 | 0.07 °C
CCN(C(=O)Nc1ccc(OC)cc1)c1nnc(-c2ccc(Cl)cc2)s1 | 0.16 °C
COc1ccc(C2=N[N+](c3nc(-c4ccc(S(=O)(=O)N5CCCC5)cc4)cs3)=C(c3ccc(OC)cc3)C2)cc1 | inactive: -0.18 °C
O=C(Nc1cccc(-c2nc3ccccc3[nH]2)c1)C1CCCO1 (configuration not stated) | 0.02 °C
Cc1ccc2ccc(C(Nc3ccccn3)c3ccc(Cl)cc3)c(O)c2n1 (configuration not stated) | 0.57 °C
COc1ccc(OC)c(-c2nc(NC(=O)c3ccccc3OC)sc2C)c1 | inactive: -7.06 °C
COc1ccc(-c2cc3ccc(OCc4ccccc4F)cc3oc2=O)cc1OC | 0.11 °C
O=C(NCCSc1ccc(Cl)cc1)Nc1ccccc1 | 0.61 °C
COc1ccc(-c2cc(C(F)(F)F)nc(NCc3cccs3)n2)cc1OC | 0.11 °C
O=C(/C=C/c1ccc(F)cc1)Nc1ccncc1 | 0.57 °C
COc1ccc(Cl)cc1NC(=S)Nc1c(C)nn(Cc2c(F)cccc2Cl)c1C | 0.81 °C
Cc1onc(-c2ccccc2Cl)c1C(=O)Nc1sc2c(c1C(N)=O)CCC2 | 0.27 °C
O=C1CC(NC(=O)Nc2nc(-c3ccccc3)ns2)c2ccccc2N1 (configuration not stated) | 0.46 °C
O=C(CS(=O)(=O)c1ccc2ccccc2c1)Nc1ccc(Cl)c(Cl)c1 | 0.11 °C
CNS(=O)(=O)c1ccc(NC(=O)c2cc(-c3ccccc3)nc3ccccc23)cc1 | 0.71 °C
CCCC(=O)Nc1ccc2nc(NC(=O)CCC)sc2c1 | 0.34 °C
COc1ccc(CCC(=O)Nc2nc3ccc(S(C)(=O)=O)cc3s2)cc1 | 0.35 °C

Structure (SMILES) | thermal shift dTm
COc1ccc(-c2cc3ccc(OCc4ccccc4Cl)cc3oc2=O)cc1OC | 0.16 °C
Cc1ccc(CCC(=O)Nc2ccc(S(=O)(=O)N3CCOCC3)cc2)cc1 | inactive: -0.01 °C
Clc1ccc(OCCCCOc2cccc3cccnc23)cc1 | 0.05 °C
O=C(/C=C/c1cccs1)Nc1ccc(Br)cc1F | inactive: -0.03 °C
COc1ccc(/C=C/C(=O)Nc2cccc(C(C)=O)c2)cc1 | active: 1.18 °C
O=c1c2c3nc4ccccc4nc3n(CCc3ccccc3)c2ncn1Cc1ccco1 | 0.16 °C
COc1ccc(NC(=O)CSc2nnc(C)c(=O)n2N)cc1Cl | 0.27 °C
Cc1ccc(SC(C)C(=O)Nc2ccc(C(N)=O)cc2)cc1 (configuration not stated) | 0.05 °C
CCCOc1ccc(-c2cc(C(N)=O)c3ccccc3n2)cc1 | inactive: -0.09 °C
O=C1CC(c2ccc(Cl)cc2)CC2=C1C=Nc1ccccc1N2 (configuration not stated) | 0.15 °C
Cc1c(Cl)cccc1-c1ccc(C(=O)NCc2ccco2)o1 | 0.15 °C
CCN(CC)S(=O)(=O)c1ccc(-c2csc([N+]3=C(c4ccc(OC)cc4)CC(c4ccc(OC)cc4)=N3)n2)cc1 | inactive: -0.04 °C
COCCCNC(=O)/C(=C\c1ccc(-c2ccc(Cl)cc2)o1)NC(=O)c1ccc(C)cc1 | 0.19 °C
COc1ccccc1C(=O)NC(=S)Nc1ccc(NC(=O)C(C)C)cc1 | 0.11 °C
Cc1cccc(NC(=O)Nc2ccc(C)c(C)c2)c1 | 0.98 °C
Cc1cc(C)nc(NS(=O)(=O)c2ccc(NC(=O)c3cccs3)cc2)n1 | active: 2.92 °C
Cc1ccc(NC(=O)Nc2ccccc2F)cc1C | 0.43 °C
O=C(Cc1ccc(Br)cc1)Nc1cccc(-c2nc3ccccc3s2)c1 | 0.11 °C
COc1ccc(-c2noc(CSc3nc4ccc(C)cc4[nH]3)n2)cc1 | 0.01 °C
c1ccc(Nc2ccc(N3CCCCC3)nn2)cc1 | 0.65 °C
O=C(OCc1nnc(-c2ccccc2)o1)c1cccc2ccccc12 | 0.02 °C
NC1=NC(=O)/C(=C\c2ccc(-c3ccc(C(=O)O)c(Cl)c3)o2)S1 | 0.89 °C

Structure (SMILES) | thermal shift dTm
CCCc1cc(=O)[nH]c(N2CCN(Cc3ccc4c(c3)OCO4)CC2)n1 | 0.02 °C
O=C(/C=C/c1ccco1)NCc1cccc(CNC(=O)/C=C/c2ccco2)c1 | active: 1.04 °C
COc1ccc(NC(=O)CS(=O)(=O)c2ccc3ccccc3c2)cc1 | 0.21 °C
C=CCN(Cc1nc(-c2ccc(Cl)cc2)no1)C(=O)Nc1ccc(C)cc1 | 0.27 °C
Cc1ccc(CN2CCC(C(=O)Nc3cccc(-c4ccn[nH]4)c3)CC2)o1 | 0.19 °C
O=C(Nc1ccc(Cl)c(Cl)c1)NC12CC3CC(CC(C3)C1)C2 | 0.16 °C
CC(C)C(=O)Nc1ccc(NC(=O)/C=C/c2ccccc2)cc1 | 0.12 °C
CSc1ccc(-c2cc(C(N)=O)on2)cc1 | 0.14 °C
COc1cc(/C=N/O)cc(Br)c1OCc1ccccc1F | 0.16 °C
Fc1ccc(COc2ccc(CNc3ccccc3)cc2Cl)cc1 | 0.63 °C
O=C(Nc1nc(-c2ccccc2)ns1)N1CCOc2ccc(Cl)cc2C1 | 0.23 °C
FC(F)(F)c1cccc(N2CCN(Cc3ccc(Br)s3)CC2)c1 | inactive: -0.13 °C
O=C(O)Cn1c2ccc(Br)cc2c2nc3ccccc3nc21 | 0.44 °C
Cc1nn(-c2ccccc2)cc1-c1nc2c(cnn2C2CCCC2)[nH]1 | 0.52 °C
O=C(/C=C/c1ccccc1Cl)NCCc1nc2ccccc2[nH]1 | 0.84 °C
CC(=O)Nc1ccc(NC(=O)c2ccccc2NC(=O)c2ccc(C)cc2)cc1 | 0.1 °C
CC(=O)Nc1ccc(S(=O)(=O)Nc2ccc(OC3CCCC3)cc2)cc1 | 0.41 °C
NC(=O)c1ccc(OCc2cccc(F)c2)cc1 | 0.19 °C
CCCN(CC1CC1)C(=O)c1cc(COc2ccc(OC)cc2Cl)on1 | 0.09 °C
CSC1=N/C(=C\c2ccc(-c3ccc(Cl)cc3)o2)C(=O)S1 | 0.29 °C
Cc1ccc(C(=O)Nc2sc(Cc3ccccc3)cc2C(N)=O)o1 | 0.37 °C
OCc1ccc(OCc2cccc3ccccc23)c(Br)c1 | 0.11 °C

A second format for some results above.
Structure (SMILES),thermal shift dTm
O=C(Nc1cccc(Cl)c1)N1CCN(c2ccccc2F)CC1,0.98 °C
O=C(NCCSc1ccc(Cl)cc1)Nc1ccccc1,0.61 °C
O=C1CC(NC(=O)Nc2nc(-c3ccccc3)ns2)c2ccccc2N1 (configuration not stated),0.46 °C
O=C(CS(=O)(=O)c1ccc2ccccc2c1)Nc1ccc(Cl)c(Cl)c1,0.11 °C
CCN(CC)S(=O)(=O)c1ccc(-c2csc([N+]3=C(c4ccc(OC)cc4)CC(c4ccc(OC)cc4)=N3)n2)cc1,inactive: -0.04 °C
COc1ccc(-c2noc(CSc3nc4ccc(C)cc4[nH]3)n2)cc1,0.01 °C
O=C(O)Cn1c2ccc(Br)cc2c2nc3ccccc3nc21,0.44 °C

(listing goes on)

Structure (SMILES) | thermal shift dTm
CCOc1cc(/C=C2/N=C(c3ccco3)OC2=O)ccc1OC(=O)c1ccc(OC)cc1 | 0.8 °C
Cc1ccc2nc(-c3ccc4c(c3)OCO4)cc(C(=O)NC3=NCCS3)c2c1 | 0.16 °C
Cc1ccc(NC(=O)COc2ccccc2)c(NC(=O)c2ccc(C)c(C)c2)c1 | 0.24 °C
CN(Cc1ccccn1)c1nccc(-c2cnn(-c3cccc(Cl)c3)c2)n1 | 0.1 °C
CC(=O)Nc1ccc(NC(=O)CCc2ccc(C)s2)cc1 | 0.21 °C
Cc1ccc(S(=O)(=O)NCC(Nc2ccccc2C)c2ccccc2)cc1 (configuration not stated) | 0.54 °C
CC1CCc2c(c3ccccc3n2C(=O)CSc2n[nH]c(N)n2)C1 (configuration not stated) | 0.23 °C
O=C(Nc1ccc2c(c1)CCC2)Nc1ccc(F)cc1F | 0.24 °C
CC(=O)Oc1ccc2cc(-c3ccc(Cl)cc3)c(=O)oc2c1 | 0.11 °C
O=C(Nc1ccc2c(c1)OCCO2)c1ccc(Cl)s1 | inactive: -0.1 °C
O=C(CN1C(=O)C2C3C=CC(C3)C2C1=O)Nc1ccc(Br)cc1 (configuration not stated) | inactive: -0.12 °C
COc1cccc(-c2nc3c(cnn3Cc3cccc(Cl)c3)[nH]2)c1O | inactive: 0 °C
O=C1OC(c2ccccc2)OC(=O)C1=Cc1ccc(-c2cccc(Br)c2)o1 (configuration not stated) | 0.47 °C
O=C(Nc1ccc(-c2noc(/C=C/c3ccccc3)n2)cc1)c1ccccc1F | inactive: -0.18 °C
Cc1noc(C)c1C(=O)Nc1ccc(S(=O)(=O)N2CCc3ccccc3C2)cc1 | 0.1 °C
O=c1[nH]c(=O)n(Cc2ccco2)c(O)c1/C=C1\C=Nc2ccccc21 | 0.05 °C
CCOCN(C(=O)Cn1c(COc2ccc(OC)cc2)nc2ccccc21)c1c(C)cccc1CC | 0.05 °C
NS(=O)(=O)c1ccc(NC(=O)c2ccc(F)c(F)c2)cc1 | 0.09 °C
N/C(=N\c1nc(-c2cccs2)cc(C(F)(F)F)n1)Nc1ccc2c(c1)OCCO2 | 0.35 °C
Cc1ccc(OCCCn2cnc3ccccc3c2=O)c(I)c1 | 0.11 °C
CCc1ccc(NC(=O)Nc2cccc(NC(C)=O)c2)cc1 | inactive: -0.42 °C
Cc1cccc(NC(=O)Nc2ccc(-c3cn4cccnc4n3)cc2)c1 | 0.56 °C

Structure (SMILES) | thermal shift dTm
O=C(Nc1cccc(-c2cc3ccccc3oc2=O)c1)c1ccccc1 | 0.19 °C
CCOc1ccc(Nc2nc(-c3ccc(Cl)cc3)nc3ccccc23)cc1 | inactive: -0.13 °C
Cc1ccc2c(c1)CN(Cc1cccc(O)c1)CC(c1ccsc1)O2 (configuration not stated) | 0.56 °C
Cc1ccc(S(=O)(=O)Nc2ccc(C(=O)Nc3ccccc3F)cc2)cc1 | 0.05 °C
O=C(COc1ccc(Cl)cc1)NCCSCc1ccc(Cl)c(Cl)c1 | 0.11 °C
COc1ccccc1NC(=S)c1nc2ccccc2s1 | 0.11 °C
O=C(CN1C(=O)c2ccccc2C1=O)Nc1ccc2ccccc2c1 | 0.12 °C
CCN(CC)C(=O)c1cccc(NC(=O)Nc2ccc(Cl)cc2)c1 | 0.23 °C
C=CCc1ccc(OCCCCOc2cccc3cccnc23)c(OC)c1 | inactive: -0.09 °C
COc1ccc(CNC(=S)NC(C)C23CC4CC(CC(C4)C2)C3)cc1 (configuration not stated) | 0.68 °C
COc1ccc(Cl)cc1S(=O)(=O)Nc1ccc(C(N)=O)cc1 | 0.32 °C
Cc1ccc(NC(=O)CC2COc3ccccc3O2)cc1Cl (configuration not stated) | 0.35 °C
COc1ccc2c(CCNC(=O)c3ccccc3Br)c[nH]c2c1 | 0.02 °C
CC(=O)Nc1ccc2nc(NC(=O)COc3cc(C)ccc3C(C)C)sc2c1 | inactive: -0.04 °C
O=C(COc1ccccc1)Nc1cccc(-c2cnc3ccccc3n2)c1 | 0.15 °C
CCC(C)c1ccc(OCCCOc2ccccc2/C=C2\SC(N)=NC2=O)cc1 (configuration not stated) | 0.24 °C
COc1cc(-n2nnc(C(=O)NCCc3ccccc3)c2N)ccc1Cl | 0.27 °C
CC1CN=C(N(C(=O)Nc2ccccc2)c2ccc(F)cc2F)S1 (configuration not stated) | 0.65 °C
Cc1ccc(-c2csc(Nc3ccccn3)n2)cc1C | 0.01 °C
